Consider four molecules from PMC10119322.

Amino acid sequences for entries named in this document (tags omitted).
UniProt Q9BWF3: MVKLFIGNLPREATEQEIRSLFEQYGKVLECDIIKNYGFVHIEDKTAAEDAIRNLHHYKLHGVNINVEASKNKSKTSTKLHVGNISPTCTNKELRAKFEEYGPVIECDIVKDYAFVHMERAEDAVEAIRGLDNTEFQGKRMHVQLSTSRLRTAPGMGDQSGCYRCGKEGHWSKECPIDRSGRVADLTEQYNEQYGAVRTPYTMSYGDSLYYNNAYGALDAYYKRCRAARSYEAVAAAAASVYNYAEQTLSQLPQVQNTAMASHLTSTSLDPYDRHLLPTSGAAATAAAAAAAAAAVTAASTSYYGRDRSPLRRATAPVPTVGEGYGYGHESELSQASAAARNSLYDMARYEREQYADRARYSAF

No constants are given. Whether binding was seen depends on the method and setting. In cells and extracts the contact can be indirect. Some entries that bind do so weakly or less than the wild type. Where a sequence is shown, tags or fusion partners need not be part of it.

B1: HA-LKB1(88-433) (domain or fragment, UniProt Q15831 88-433)
chain: IPNGEANVKKEIQLLRRLRHKNVIQLVDVLYNEEKQKMYMVMEYCVCGMQEMLDSVPEKRFPVCQAHGYFCQLIDGLEYLHSQGIVHKDIKPGNLLLTTGGTLKISDLGVAEALHPFAADDTCRTSQGSPAFQPPEIANGLDTFSGFKVDIWSAGVTLYNITTGLYPFEGDNIYKLFENIGKGSYAIPGDCGPPLSDLLKGMLEYEPAKRFSIRQIRQHSWFRKKHPPAEAPVPIPPSPDTKDRWRSMTVVPYLEDLHGADEDEDLFDIEDDIIYTQDFTVPGQVPEEEASHNGQRRGLPKAVCMNGTEAAQLSTKSRAEGRAPNPARKACSASSKIRRLSACKQQ
B2: HA-LKB1(1-317) (domain or fragment, UniProt Q15831 1-317)
chain: MEVVDPQQLGMFTEGELMSVGMDTFIHRIDSTEVIYQPRRKRAKLIGKYLMGDLLGEGSYGKVKEVLDSETLCRRAVKILKKKKLRRIPNGEANVKKEIQLLRRLRHKNVIQLVDVLYNEEKQKMYMVMEYCVCGMQEMLDSVPEKRFPVCQAHGYFCQLIDGLEYLHSQGIVHKDIKPGNLLLTTGGTLKISDLGVAEALHPFAADDTCRTSQGSPAFQPPEIANGLDTFSGFKVDIWSAGVTLYNITTGLYPFEGDNIYKLFENIGKGSYAIPGDCGPPLSDLLKGMLEYEPAKRFSIRQIRQHSWFRKKHPPAE
B3: HA-LKB1(1-243) (domain or fragment, UniProt Q15831 1-243)
chain: MEVVDPQQLGMFTEGELMSVGMDTFIHRIDSTEVIYQPRRKRAKLIGKYLMGDLLGEGSYGKVKEVLDSETLCRRAVKILKKKKLRRIPNGEANVKKEIQLLRRLRHKNVIQLVDVLYNEEKQKMYMVMEYCVCGMQEMLDSVPEKRFPVCQAHGYFCQLIDGLEYLHSQGIVHKDIKPGNLLLTTGGTLKISDLGVAEALHPFAADDTCRTSQGSPAFQPPEIANGLDTFSGFKVDIWSAGV
B4: HA-LKB1(88-243) (domain or fragment, UniProt Q15831 88-243)
chain: IPNGEANVKKEIQLLRRLRHKNVIQLVDVLYNEEKQKMYMVMEYCVCGMQEMLDSVPEKRFPVCQAHGYFCQLIDGLEYLHSQGIVHKDIKPGNLLLTTGGTLKISDLGVAEALHPFAADDTCRTSQGSPAFQPPEIANGLDTFSGFKVDIWSAGV

This assay addresses Flag-RBM4 (UniProt Q9BWF3). Kind of assay: co-IP; KYSE150 cells co-transfected 24-48 h, with or without PS341 (bortezomib, 10 uM, 8 h); IP lysis buffer (50 mM Tris-HCl pH 7.4, 150 mM NaCl, 1 mM EDTA, 1% TritonX-100); lysate on anti-Flag M2 Affinity Gel at 4 °C overnight; western blot; in Fig. 4d increasing RBM4, in Fig. 4e increasing siRBM4. Background: In western blotting, separated proteins are transferred to a membrane and probed.
As to B1, the binding entry was “no binding”.
With B2, the binding entry is listed as “binds”.
With B3, the binding result was “binds”.
For B4, the binding result is “no binding”.
